# PubChem BioAssay AID504764 | Drosophila RNAi Screening Center, 2011
# Purpose: 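Genome-wide screen for regulators of Notch-driven gene expression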 (primary screen)
# System: Drosophila Kc167 cells
# Knock-down reagent: long dsRNA against Drosophila genes
# Time to read-out: about 5 days (4 days dsRNA, then 24 h after transfection)
# Conditions: transfection of constitutively active membrane-tethered Notch lacking the extracellular domain, read 24 h later
# Read-out: 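Firefly luciferase from an E(spl)m3 reporter with active Notch, plus control-promoter and uninduced reporter wells for normalisation; unnormalised counts, duplicate wells a and b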
# Direction: induced reporter light, run 1, well a and induced reporter light, run 1, well b: higher = more light from the Notch target reporter with active Notch; control promoter light, run 1, well a and control promoter light, run 1, well b: higher = more light from the viral control promoter (cell number, transfection, viability); uninduced reporter light, run 1, well a: higher = more light from the Notch target reporter without active Notch
# Active means: 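Wells with low control signal or poorly matching duplicates excluded; duplicates averaged; per source plate, z beyond ±2 for induced/control log2 ratio or beyond ±1.8 for induced/uninduced marks a hit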
# Meaning of the calls: active = modifier hit (raised or lowered Notch signal); inactive = not a hit
# In all, the deposit lists about 22,000 reagents; shown is an unselected part of those that have a named target and a result. In the full data, 403 (1.9%) are marked active. 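Unnormalised raw counts per well; ratio z-scores behind the hit calls and whether each hit raises or lowers signal are not deposited.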 A plus sign joins genes that one reagent is predicted to hit. Reagent sequences are not shown. The record does not give: the amount of reagent.
gene,PubChem SID,"induced reporter light, run 1, well a","induced reporter light, run 1, well b","control promoter light, run 1, well a","control promoter light, run 1, well b","uninduced reporter light, run 1, well a",activity call
S1P,SID104191602,49885,38185,46000,37990,3335,inactive
RpL22-like,SID104184374,1.86e5,1.66e5,1.63e5,1.64e5,13290,inactive
CG5567,SID104190309,1.44e5,1.22e5,73645,77905,10745,inactive
CG4520,SID104195382,2.57e5,3.05e5,2.45e5,2.30e5,20625,inactive
CG33325,SID104192491,1.42e5,1.31e5,1.71e5,1.80e5,14235,inactive
Coq3,SID104182960,2.09e5,2.03e5,1.47e5,2.08e5,14878,inactive
CG9331,SID104182998,1.65e5,1.84e5,99950,1.44e5,10445,inactive
eys,SID104179905,56880,53890,56195,60350,6930,inactive
eys,SID104180194,1.09e5,1.25e5,98120,59295,9480,inactive
eys,SID104180195,1.19e5,87150,98465,52920,8170,inactive
eys,SID104180487,1.29e5,1.63e5,1.81e5,1.70e5,12920,inactive
CG9521,SID104199988,1.03e5,84980,1.03e5,91150,14850,inactive
Arf1,SID104191398,66075,64645,48260,39600,4500,inactive
tctn + B9d2,SID104182952,1.70e5,1.40e5,2.01e5,1.89e5,9350,inactive
pnt,SID104196820,42285,58945,10282,11680,8420,inactive
Ser12,SID104180578,1.23e5,1.12e5,1.08e5,52490,8060,inactive
CG33453,SID104185574,1.07e5,1.04e5,1.25e5,1.20e5,9630,inactive
CG31706,SID104202089,,,,,,inactive
CG15708,SID104186371,30590,30680,45815,48285,3410,inactive
Rme-8,SID104186846,1.72e5,1.57e5,1.93e5,1.76e5,15430,inactive
Mfe2,SID104199661,1.66e5,1.79e5,2.17e5,1.89e5,11830,inactive
Amy-p,SID104186578,95920,1.01e5,1.08e5,1.50e5,9225,inactive
CG8012,SID104190743,1.42e5,1.33e5,1.31e5,1.09e5,8345,inactive
Sgf11,SID104189779,1.52e5,2.13e5,2.13e5,1.97e5,9160,inactive

Continued (6 carried over from the part before).
gene,PubChem SID,"induced reporter light, run 1, well a","induced reporter light, run 1, well b","control promoter light, run 1, well a","control promoter light, run 1, well b","uninduced reporter light, run 1, well a",activity call
CG15708,SID104186371,30590,30680,45815,48285,3410,inactive
Rme-8,SID104186846,1.72e5,1.57e5,1.93e5,1.76e5,15430,inactive
Mfe2,SID104199661,1.66e5,1.79e5,2.17e5,1.89e5,11830,inactive
Amy-p,SID104186578,95920,1.01e5,1.08e5,1.50e5,9225,inactive
CG8012,SID104190743,1.42e5,1.33e5,1.31e5,1.09e5,8345,inactive
Sgf11,SID104189779,1.52e5,2.13e5,2.13e5,1.97e5,9160,inactive
elfless,SID104182243,1.14e5,1.47e5,1.32e5,1.27e5,10445,inactive
CG1113,SID104191955,1.02e5,1.13e5,93610,64010,4075,inactive
Ada2a,SID104195998,2.54e5,2.29e5,2.59e5,2.92e5,20730,inactive
dpr18,SID104199398,79540,89905,77825,61015,12005,inactive
Dgp-1,SID104187192,1.31e5,85485,1.04e5,99380,10055,inactive
CG14817,SID104198339,1.14e5,1.18e5,1.68e5,2.47e5,7255,inactive
Eig71Ek,SID104190950,1.66e5,1.62e5,1.98e5,1.62e5,10175,inactive
Cad74A,SID104190428,1.80e5,1.44e5,2.29e5,2.17e5,6220,inactive
Ugt35D1,SID104194899,1.84e5,1.85e5,3.06e5,3.82e5,13892,inactive
eEF2,SID104183529,4155,5488,7160,11100,292,inactive
CG31496,SID104192339,1.61e5,1.77e5,2.89e5,2.61e5,12550,inactive
CG6425,SID104195830,1.58e5,1.69e5,1.81e5,1.86e5,12720,inactive
Roc1a,SID104198275,51225,44450,69615,84075,5060,inactive
CG5174,SID104186712,1.01e5,78445,1.43e5,1.82e5,7440,inactive
CG11191,SID104185848,1.20e5,1.15e5,92515,84345,11255,inactive
CG15253,SID104181663,1.97e5,1.92e5,1.70e5,2.21e5,17535,inactive
CG17167,SID104200694,1.05e5,1.01e5,1.05e5,1.56e5,10845,inactive
CG17167,SID104200695,1.26e5,1.08e5,1.41e5,1.62e5,12630,inactive
Dys + snoRNA:Me18S-A1374,SID104196024,75105,58910,57295,60190,7085,inactive
Rpn2,SID104196631,12275,13670,12995,16270,735,inactive
HDAC4,SID104199572,1.21e5,1.35e5,1.85e5,1.59e5,8900,inactive
Sh,SID104199006,7220,5410,7070,9540,3670,inactive
Sh,SID104199012,88640,89410,84840,89020,6550,inactive
Sh,SID104199577,90725,88270,1.26e5,1.01e5,11145,inactive
Sh,SID104199847,70765,70005,56835,64390,9832,inactive
ArgRS-m,SID104193978,78155,94800,74185,67090,5880,inactive
